Data as given in article PMC11141627.
Results are given in words; binding and its absence hold for the method and conditions named.

Target: Human PABPC1 (as PABPC1-A24) (human), P11940
Assay: condition: PABPC1-A24 (8.9 μM) titrated with RNH1 (89 μM); ITC; PABPC1-A24 (8.9 uM) titrated with RNH1 (89 uM); MicroCal PEAQ-ITC; 10 mM Na2HPO4 pH 7.4, 1.8 mM KH2PO4, 137 mM NaCl, 2.7 mM KCl; 25 C; both purified
Conditions: remark: other sources report otherwise

binding: no binding
B1: full-length recombinant RNH1 protein, P13489 1-461 (protein)
chain: MSLDIQSLDIQCEELSDARWAELLPLLQQCQVVRLDDCGLTEARCKDISSALRVNPALAELNLRSNELGDVGVHCVLQGLQTPSCKIQKLSLQNCCLTGAGCGVLSSTLRTLPTLQELHLSDNLLGDAGLQLLCEGLLDPQCRLEKLQLEYCSLSAASCEPLASVLRAKPDFKELTVSNNDINEAGVRVLCQGLKDSPCQLEALKLESCGVTSDNCRDLCGIVASKASLRELALGSNKLGDVGMAELCPGLLHPSSRLRTLWIWECGITAKGCGDLCRVLRAKESLKELSLAGNELGDEGARLLCETLLEPGCQLESLWVKSCSFTAACCSHFSSVLAQNRFLLELQISNNRLEDAGVRELCQGLGQPGSVLRVLWLADCDVSDSSCSSLAATLLANHSLRELDLSNNCLGDAGILQLVESVRQPGCLLEQLVLYDIYWSEEMEDRLQALEKDKPSLRVIS
